Test results reported in PubChem BioAssay AID2685 (National Center for Advancing Translational Sciences (NCATS), 2010).
Screen size: about 320,000 compounds; about 2,100 (0.66%) were called active. Inconclusive means that the source gave no clear call. Such entries were picked first, then a sample of the others. The call rests on the fitted dose curve; in most records, active means well fitted inhibition curve with a large enough effect in the signal ratio, with a control signal flat (not every such curve was filed as active); inconclusive means small, poorly fitted or top-dose-only effect, or effect the other way, or a change in a side signal; inactive means flat fitted curve, though single readings scatter; the % refers to the signal ratio. Potencies of inconclusive entries are doubtful fits and often do not repeat.

Experiment: qHTS Assay for Lipid Storage Modulators in Drosophila S3 Cells
Details: BODIPY lipid droplet fluorescence, 18-24 h, cells fed with added oleic acid; lipid storage change, negative = inhibition: at 46.1 µM (top of the series) unless noted
How it was run: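 Drosophila S3 cells got compounds at several concentrations plus oleic acid (400 uM solution). Laser-scanning cytometry with 488 nm excitation read lipid droplets at 500-530 nm and cells at 575-640 nm. Percent activity was relative to 20 uM Triacsin C.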
On the % scale 0 is the no-effect control and ±100 the full control effect; potency means the concentration at half of the fitted maximal effect.

SMILES	lipid storage change, negative = inhibition	Potency	outcome
Cc1ccc(CNC(=O)CSc2ccc(-c3cccs3)nn2)cc1	inconclusive: -2.12%		
CCCCC(=O)NNC(=S)NC(=O)c1ccc([N+](=O)[O-])cc1	inconclusive: 3.29%		
CC(C)c1ccc(N)c(S(=O)(=O)O)c1	inconclusive: -27.4%		
COc1ccc(CNC(=O)CN(Cc2ccc(Cl)cc2)S(=O)(=O)c2ccccc2)cc1		active: 20600 nM	
Cc1cc(C)cc(NC(=O)COC(=O)CCC2CCCC2)c1	inconclusive: 4.36%		
CSc1ccccc1NC(=O)CN(C)CC(=O)c1c(C)[nH]c2ccccc12		inconclusive: 184 nM [activator, full curve, poor fit]	
CCC(COC(=O)Nc1cccc(C)c1)NC(=O)OCC(C)C (stereo not given)		inconclusive: 58 nM [activator, full curve, poor fit]	
CCc1cccc2c(C(=O)Cn3nnc(-c4ccc(OC)c(OC)c4)n3)c[nH]c12		inconclusive: 4.6 nM [rising, full curve, poor fit]	
CCN(CC)CCNC(=O)c1cc(-c2ccco2)nc2ccccc12	inconclusive: -21.9%		
CSc1ccccc1NC(=O)c1cnc2scc(C)n2c1=O		inconclusive: 18400 nM [rising, single point]	
CNC(=O)CSc1nccn1Cc1ccc(Cl)cc1	inconclusive: -49.8%		
NC(=S)NNC(=O)c1cccc(Br)c1	inconclusive: 18.8%		
COc1ccc(CNc2nnnn2C)c(OC)c1		active: 651 nM	
CCc1ccccc1NC(=O)c1cc([N+](=O)[O-])ccc1N1CCOCC1	inconclusive: 53.2%		
O=C(COC(=O)c1ccccc1O)Nc1cccc(S(=O)(=O)NC2=NCCCCC2)c1	inconclusive: -5.92%		
CCn1cc(Br)c(C(=O)Nc2ccc(F)c(Cl)c2)n1	inconclusive: 10.7%		
CCCCc1nc(C(N)=O)c2[nH]c(=O)n(-c3ccc(OC)c(OC)c3)c2n1			inactive [at 46.1 µM]
CCOc1ccc(C(=O)N2CCN(Cc3ccccc3)CC2)cc1	inconclusive: 15.9%		
c1ccc(Cn2nnc3c(NCC4CCCO4)ncnc32)cc1 (stereo not given)	inconclusive: 26.7%		
O=c1c2c3c(sc2nc2sc(C4CC4)nn12)CCCC3	inconclusive: 32.8%		
CC(C)CCn1cnc2c(NCc3ccccc3)ncnc21		inconclusive: 580 nM [rising, single point]	
Cc1ccc(-n2c(Cc3cccn3C)nnc2SCC(=O)Nc2ccc3c(c2)OCO3)cc1	inconclusive: -24.2%		
COc1ccc(CCN(C(=O)c2ccco2)C(C(=O)NC2CCCC2)c2ccncc2)cc1OC (stereo not given)		inconclusive: 6.5 nM [falling, full curve, poor fit]	
COc1ccc(CCNC(=O)CCn2cccc2)cc1OC	inconclusive: -4.89%		
COc1cc(=O)[nH]c(SC(C)C(=O)Nc2cc(C)on2)n1 (stereo not given)		inconclusive: 1160 nM [falling, single point]	

Reformatted with bars between the fields: part of the list above
SMILES | lipid storage change, negative = inhibition | Potency | outcome
Cc1ccc(CNC(=O)CSc2ccc(-c3cccs3)nn2)cc1 | inconclusive: -2.12% |  | 
CC(C)c1ccc(N)c(S(=O)(=O)O)c1 | inconclusive: -27.4% |  | 
COc1ccc(CNC(=O)CN(Cc2ccc(Cl)cc2)S(=O)(=O)c2ccccc2)cc1 |  | active: 20600 nM | 
Cc1cc(C)cc(NC(=O)COC(=O)CCC2CCCC2)c1 | inconclusive: 4.36% |  | 
CNC(=O)CSc1nccn1Cc1ccc(Cl)cc1 | inconclusive: -49.8% |  | 
CCc1ccccc1NC(=O)c1cc([N+](=O)[O-])ccc1N1CCOCC1 | inconclusive: 53.2% |  | 
O=C(COC(=O)c1ccccc1O)Nc1cccc(S(=O)(=O)NC2=NCCCCC2)c1 | inconclusive: -5.92% |  | 
CCn1cc(Br)c(C(=O)Nc2ccc(F)c(Cl)c2)n1 | inconclusive: 10.7% |  | 
Cc1ccc(-n2c(Cc3cccn3C)nnc2SCC(=O)Nc2ccc3c(c2)OCO3)cc1 | inconclusive: -24.2% |  | 
COc1ccc(CCN(C(=O)c2ccco2)C(C(=O)NC2CCCC2)c2ccncc2)cc1OC (stereo not given) |  | inconclusive: 6.5 nM [falling, full curve, poor fit] | 
COc1cc(=O)[nH]c(SC(C)C(=O)Nc2cc(C)on2)n1 (stereo not given) |  | inconclusive: 1160 nM [falling, single point] | 

Next part.

SMILES	lipid storage change, negative = inhibition	Potency	outcome
O=C(COc1ccccc1Cl)Nc1ccc(C(=O)c2ccc(C(=O)O)cc2)cc1	inconclusive: -31.7% [at 0.369 µM]		
O=C(CSc1cccs1)NCCc1ccccc1		inconclusive: 29100 nM [activator, single point]	
COc1ccc2cc(C#N)c(Nc3cccc(F)c3)nc2c1	inconclusive: 7.74%		
O=C(COC(=O)Cc1ccccc1[N+](=O)[O-])NNC(=O)c1ccc([N+](=O)[O-])cc1	inconclusive: 21%		
COc1ccc(Cc2nnc(SCC(=O)Nc3ccccc3)[nH]c2=O)cc1	inconclusive		
CCC(C)NC(=O)C1CCCN(C(=O)Nc2ccc(F)cc2)C1 (stereo not given)	inconclusive: 98.6%		
Cc1cc2c(cc1S(=O)(=O)Nc1cccc(C)c1C)n(C)c(=O)c(=O)n2C		active: 9200 nM	
COc1ccccc1NC(=O)CSc1nc(O)cc(=O)n1-c1ccccc1OC		inconclusive: 130 nM [activator, full curve, poor fit]	
COc1ccc(-n2c(C)nc3cc(C(=O)NCCN4CCOCC4)ccc32)cc1	inconclusive: -11.2%		
O=C(CN1C(=O)NC2(CCCCC2)C1=O)N1CCN(S(=O)(=O)c2ccc(Cl)s2)CC1	inconclusive: 5.77%		
Cn1c(Cc2ccccc2)nnc1SCC(=O)Nc1ccc(N2CCOCC2)cc1	inconclusive: 40.8%		
COc1ccccc1NS(=O)(=O)c1cccc(C(=O)N2CCCCCC2)c1	inconclusive		
Cc1ccc(C)c(N2N=C(C(=O)OCC(=O)N(C)c3ccccc3)CCC2=O)c1	inconclusive		
NC(N)=NC(N)=Nc1cccc2ccccc12	inconclusive: 3.06%		
C=CCn1c(SCC(=O)Nc2ccc(C(=O)OCC)cc2)nnc1-c1sc(N)nc1C		inconclusive: 5800 nM [activator, partial curve]	
CN(C)c1ccc(/C=C/C(=O)c2ccc3c(c2)OCO3)cc1	inconclusive: -0.256%		
O=C(Cc1ccccc1F)NNC(=O)c1ccncc1		inconclusive: 1160 nM [falling, full curve]	
COc1ccc(-c2cc(=O)oc3cc(OCC(=O)N4C[C@H]5C[C@@H](C4)c4cccc(=O)n4C5)ccc23)cc1		inconclusive: 82 nM [falling, full curve, poor fit]	
COc1ccc(Cl)cc1NC(=S)N1CCN(S(C)(=O)=O)CC1	inconclusive: 11%		
Cc1cc(C(=O)OC2CCOC2=O)c2ccccc2n1 (stereo not given)	inconclusive: 5.08%		
Cc1ccc(C)c(OCC(=O)Nc2cc(NC(=O)COc3cc(C)ccc3C)cc(C(=O)O)c2)c1	inconclusive: 49.4%		
COc1ccc(-c2ccccc2NC(=O)C2CCCN(Cc3ccco3)C2)cc1 (stereo not given)	inconclusive: -30.2%		
N#C/C(=C\c1ccc(O)c(O)c1)C(=O)NCc1ccccc1	inconclusive: -8.52%		
CCC1(c2ccccc2)NC(=O)N(CC(=O)Nc2ccc(N3CCCC3)cc2C)C1=O (stereo not given)		inconclusive: 2310 nM [rising, partial curve, poor fit]	
O=C1C=C(c2ccc3c(c2)OCO3)C[C@@H](c2ccc3c(c2)OCO3)C1		inconclusive: 23100 nM [activator, partial curve, poor fit]	
